Measurements reported in PubChem BioAssay AID743454 (Peter MacCallum Cancer Centre, 2014)
Test: 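Search for knock-downs that restore vorinostat killing in resistant colon cancer cells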 (primary screen). System: human HCT116-VR colon cancer cells, selected for vorinostat resistance. Reagent: siRNA pool against human genes, 40 nM siRNA pool. Timing: vorinostat for 24 h, read-out about 72 h after transfection. Conditions: vorinostat at 2.5 µM final. Detection: 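Two measures, CellTiter-Fluor viability and luminescent caspase 3/7 activity, each as fold change against same-plate mock wells, mean of duplicates, then screen-wide robust z-score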. Direction: viability robust z-score: higher = more viable cells than screen typical; caspase robust z-score: higher = more caspase 3/7 activity than screen typical. Hit rule: 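Hits are knock-downs in viability class RV1/RV2 or caspase class CA1/CA2, excluding ones that killed cells in the no-drug cell-count arm; hits then retested with single siRNAs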.
In all, the deposit lists about 18,000 reagents; this is a part drawn at random. In the full data, 450 (2.5%) got an active call. 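Single biological run; no consistent viability z cut-off exists, so the class columns, not z-scores, define the calls.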 Unmarked entries are inactive. Reagent sequences are not shown.

| gene knocked down | viability hit class | caspase hit class | viability robust z-score | caspase robust z-score |
| --- | --- | --- | --- | --- |
| GORAB (GeneID 92344) | no change | no change | -1.6 | 1.74 |
| OR4M1 (GeneID 441670) | no change | no change | -0.03 | -0.33 |
| VHLL (GeneID 391104) | no change | no change | 0.19 | 0.48 |
| NFATC1 (GeneID 4772) | no change | no change | -0.28 | -0.42 |
| HECW2 (GeneID 57520) | no change | no change | -0.23 | 0.22 |
| QRICH2 (GeneID 84074) | no change | no change | 0.24 | -0.74 |
| LINC00477 (GeneID 144360) | no change | no change | -0.96 | 1.56 |
| RAB3D (GeneID 9545) | no change | no change | 1.06 | -0.41 |
| C1QTNF9B (GeneID 387911) | no change | no change | 1.52 | -0.07 |
| SLC16A13 (GeneID 201232) | no change | no change | -0.78 | 1.77 |
| RFX4 (GeneID 5992) | no change | no change | 1.21 | 1.38 |
| SIK3 (GeneID 23387) | no change | no change | 0.64 | 0.34 |
| LHX8 (GeneID 431707) | no change | no change | -1.21 | 0.34 |
| NBN (GeneID 4683) | no change | no change | 0.91 | 0.04 |
| UBL4A (GeneID 8266) | no change | no change | 1.16 | 0.03 |
| PIK3CA (GeneID 5290) | no change | no change | -0.52 | 2.29 |
| RTL4 (GeneID 340595) | no change | no change | 0.88 | -0.96 |
| CPLX1 (GeneID 10815) | no change | no change | 1.62 | 0.94 |
| NABP1 (GeneID 64859) | no change | no change | 0.4 | 0.72 |
| TUBB8 (GeneID 347688) | no change | no change | 0.67 | 0.48 |
| TBC1D19 (GeneID 55296) | no change | no change | -0.09 | -1.1 |
| MYRIP (GeneID 25924) | no change | no change | 0.02 | 0.91 |
| PLEKHO1 (GeneID 51177) | no change | no change | 0.44 | 0.9 |

An excerpt from above, reduced to “viability hit class”.
NBN (GeneID 4683): no change
UBL4A (GeneID 8266): no change
